Data as given in PubChem BioAssay AID504793 (Drosophila RNAi Screening Center, 2011).

Test: 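Genes required for cells to halt at G2/M after double-strand DNA breaks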 (primary screen)
Cells: Drosophila S2R+ cells
Reagent: long dsRNA against Drosophila genes, about 0.25 µg dsRNA per well
Time to read-out: 4 days of dsRNA, then 4 hours of drug before read-out
Conditions: doxorubicin 0.5 µM for 4 hours to cause double-strand breaks, in cells also given a low, harmless dose of dsRNA against nbs to sensitise the assay
Measured: 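Mitotic index as the number of phospho-histone H3-positive cells in each well following doxorubicin, given as raw counts without normalisation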
Direction: mitotic cells: higher = more cells in mitosis, weaker G2 arrest
Call rule: 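Genes are called active only when high mitotic counts were reproduced with independent dsRNAs and mitosis was checked for delay without damage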
Meaning of the calls: active = confirmed in follow-up tests; inactive = not confirmed
The deposit covers about 23,000 reagents; shown is a random part of those that have a named target and a result. In the full data, 62 (0.27%) got an active call. 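Calls come from follow-up tests whose scores are not deposited, so confirmed genes may have low counts here; counts are not normalised per plate.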 Raw values vary from plate to plate and are shown uncorrected. The numbers tell different reagents against one gene apart.

ms(3)76Cc #1: mitotic cells, replicate 1 = 8; call = inactive
ms(3)76Cc #2: mitotic cells, replicate 1 = 8; call = inactive
CR31541 (retired record) #1: mitotic cells, replicate 1 = 8; call = inactive
CR31541 (retired record) #2: mitotic cells, replicate 1 = 10; call = inactive
CG17329 #1: mitotic cells, replicate 1 = 4; call = inactive
CG17329 #2: mitotic cells, replicate 1 = 7; call = inactive
CG16727 #1: mitotic cells, replicate 1 = 5; call = inactive
CG16727 #2: mitotic cells, replicate 1 = 7; call = inactive
CG10479: mitotic cells, replicate 1 = 8; call = inactive
Skeletor (retired record) #1: mitotic cells, replicate 1 = 3; call = inactive
Skeletor (retired record) #2: mitotic cells, replicate 1 = 4; call = inactive
Rbfox1 #1: mitotic cells, replicate 1 = 12; call = inactive
Rbfox1 #2: mitotic cells, replicate 1 = 7; call = inactive
Rbfox1 #3: mitotic cells, replicate 1 = 16; call = inactive
Rbfox1 #4: mitotic cells, replicate 1 = 7; call = inactive
Cp36 #1: mitotic cells, replicate 1 = 6; call = inactive
Cp36 #2: mitotic cells, replicate 1 = 3; call = inactive
Pdhb #1: mitotic cells, replicate 1 = 7; call = inactive
Pdhb #2: mitotic cells, replicate 1 = 5; call = inactive
Ugt36F1: call = inactive
CG3777 #1: mitotic cells, replicate 1 = 10; call = inactive
CG3777 #2: mitotic cells, replicate 1 = 12; call = inactive
CG14480: mitotic cells, replicate 1 = 9; call = inactive

6 entries from above, set out differently:
gene knocked down | dsRNA no. | mitotic cells, replicate 1 | mitotic cells, replicate 2 | call
CG16727 | 2 | 7 | – | inactive
CG10479 | 1 | 8 | – | inactive
Skeletor (retired record) | 1 | 3 | – | inactive
Skeletor (retired record) | 2 | 4 | – | inactive
Rbfox1 | 1 | 12 | – | inactive
Rbfox1 | 2 | 7 | – | inactive

Continued.
CG33107: mitotic cells, replicate 1 = 11; call = inactive
CG17567 (retired record) #1: mitotic cells, replicate 1 = 1; call = inactive
CG17567 (retired record) #2: mitotic cells, replicate 1 = 7; call = inactive
CG17567 (retired record) #3: mitotic cells, replicate 1 = 3; call = inactive
mRpL45: mitotic cells, replicate 1 = 17; call = inactive
Acsx4 #1: mitotic cells, replicate 1 = 17; call = inactive
Acsx4 #2: mitotic cells, replicate 1 = 12; call = inactive
CG7573: mitotic cells, replicate 1 = 5; call = inactive
nom #1: mitotic cells, replicate 1 = 1; call = inactive
nom #2: mitotic cells, replicate 1 = 5; call = inactive
CG3328 #1: mitotic cells, replicate 1 = 8; call = inactive
CG3328 #2: mitotic cells, replicate 1 = 3; call = inactive
Ca-alpha1D: mitotic cells, replicate 1 = 3; call = inactive
TTLL5: mitotic cells, replicate 1 = 7; call = inactive
CG13048 #1: mitotic cells, replicate 1 = 6; call = inactive
CG13048 #2: call = inactive
amon #1: mitotic cells, replicate 1 = 16; call = inactive
amon #2: mitotic cells, replicate 1 = 17; mitotic cells, replicate 2 = 10; call = inactive
CG11191 #1: mitotic cells, replicate 1 = 12; call = inactive
CG11191 #2: mitotic cells, replicate 1 = 3; call = inactive
